{"source": "PubChem BioAssay AID186", "about": "(DTP/NCI, 2004)", "system": "B6D2F1 mice, nontumored toxicity test, survival", "test": "NCI In Vivo Anticancer Drug Screen. Data for tumor model Nontumored Animals (Toxicity Test) in B6D2F1 (BDF1) mice", "note": "Values are animals surviving of animals treated; these mice carried no tumour. Survivors were counted at the toxicity check, usually on the fifth day, unless a day is given; later deaths do not show. Schedule codes are those of the source, read here as Q, the interval in days (D) or hours (H), X, the number of doses. Some entries hold several experiments; the results are listed from low to high. Some schedules carry Z or #; the key to these is not given."}
{"smiles": "O=C(O)CN(CCN(CC(=O)O)CC(=O)O)CC(=O)O", "values": [{"measurement": "survivor count", "setting": "dose: 50.0 mg/kg/injection, schedule: Q01DX001 (ip), vehicle: saline", "value": "10 of 10 and 6 of 6"}, {"measurement": "survivor count", "setting": "dose: 100.0 mg/kg/injection, schedule: Q01DX001 (ip), vehicle: saline", "value": "10 of 10 and 6 of 6"}, {"measurement": "survivor count", "setting": "dose: 200.0 mg/kg/injection, schedule: Q01DX001 (ip), vehicle: saline", "value": "10 of 10 and 6 of 6"}, {"measurement": "survivor count", "setting": "dose: 400.0 mg/kg/injection, schedule: Q01DX001 (ip), vehicle: saline", "value": "10 of 10"}]}
{"smiles": "C[C@]12C=CC(=O)C=C1CC[C@@H]1[C@@H]2C(=O)C[C@@]2(C)[C@H]1CC[C@]2(O)C(=O)CO", "values": [{"measurement": "survivor count", "setting": "dose: 25.0 mg/kg/injection, schedule: Q01DX005 (ip), vehicle: water", "value": "8 of 8"}, {"measurement": "survivor count", "setting": "dose: 25.0 mg/kg/injection, schedule: Q01DX009 (ip), vehicle: water", "value": "6 of 6"}, {"measurement": "survivor count", "setting": "dose: 25.0 mg/kg/injection, schedule: Q## X014 (ip), vehicle: water", "value": "6 of 6"}, {"measurement": "survivor count", "setting": "dose: 50.0 mg/kg/injection, schedule: Q01DX005 (ip), vehicle: water", "value": "8 of 8"}, {"measurement": "survivor count", "setting": "dose: 50.0 mg/kg/injection, schedule: Q01DX009 (ip), vehicle: water", "value": "6 of 6"}, {"measurement": "survivor count", "setting": "dose: 50.0 mg/kg/injection, schedule: Q## X014 (ip), vehicle: water", "value": "6 of 6"}, {"measurement": "survivor count", "setting": "dose: 100.0 mg/kg/injection, schedule: Q01DX005 (ip), vehicle: water", "value": "8 of 8"}, {"measurement": "survivor count", "setting": "dose: 100.0 mg/kg/injection, schedule: Q01DX009 (ip), vehicle: water", "value": "6 of 6"}, {"measurement": "survivor count", "setting": "dose: 100.0 mg/kg/injection, schedule: Q## X014 (ip), vehicle: water", "value": "5 of 6"}, {"measurement": "survivor count", "setting": "dose: 200.0 mg/kg/injection, schedule: Q01DX001 (ip), vehicle: water", "value": "8 of 8"}, {"measurement": "survivor count", "setting": "dose: 200.0 mg/kg/injection, schedule: Q01DX005 (ip), vehicle: water", "value": "8 of 8"}, {"measurement": "survivor count", "setting": "dose: 200.0 mg/kg/injection, schedule: Q01DX009 (ip), vehicle: water", "value": "5 of 6"}, {"measurement": "survivor count", "setting": "dose: 200.0 mg/kg/injection, schedule: Q## X014 (ip), vehicle: water", "value": "6 of 6"}, {"measurement": "survivor count", "setting": "dose: 400.0 mg/kg/injection, schedule: Q01DX001 (ip), vehicle: water", "value": "8 of 8"}, {"measurement": "survivor count", "setting": "dose: 400.0 mg/kg/injection, schedule: Q01DX005 (ip), vehicle: water", "value": "8 of 8"}, {"measurement": "survivor count", "setting": "dose: 800.0 mg/kg/injection, schedule: Q01DX001 (ip), vehicle: water", "value": "8 of 8"}, {"measurement": "survivor count", "setting": "dose: 1600.0 mg/kg/injection, schedule: Q01DX001 (ip), vehicle: water", "value": "8 of 8"}, {"measurement": "survivor count", "setting": "dose: 3200.0 mg/kg/injection, schedule: Q01DX001 (ip), vehicle: water", "value": "8 of 8"}]}
